Values from PubChem BioAssay AID720505 (Drosophila RNAi Screening Center, 2013).
The deposit covers about 20,000 reagents; shown is a random part of those with a known target gene and a result. In the full data, about 2,100 (10%) got an active call. 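Raw plate signals without normalisation; calls rest on control-based scores that were not deposited; replicate 2 separates called from uncalled poorly.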 Reagents against one gene are numbered here. Names joined by + are all predicted targets of the reagent. The record does not give: the amount of reagent, the time to read-out.

Test: 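Fly regulators or components of the CRAC channel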 (primary screen)
System: Drosophila S2R+ cells
Reagents: long dsRNA against Drosophila genes
Challenge: thapsigargin (2 µM) in calcium-free buffer to empty internal stores, then 2 mM calcium added back
Read-out: 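Fluo-4 signal in 384-well plates read on a FLIPR after thapsigargin (2 µM, calcium-free) store depletion and 2 mM calcium add-back; unnormalised mean endpoint per well; screen run twice, selected wells retested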
Direction: calcium signal: higher = more calcium entry after store depletion
Rule for the call: 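About 1500 genes called as lowering calcium entry, by varying amounts, judged against per-plate control wells with STIM1 as positive and Rho1 as negative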
Meaning of the calls: active = called as lowering calcium entry; inactive = not called

Depletion of shop gave: calcium signal, replicate 1 = 157; calcium signal, replicate 2 = 126; inactive.
For CG43193 (retired record) the deposit lists calcium signal, replicate 1 = 104; calcium signal, replicate 2 = 79.6; inactive.
After knock-down of CG2200, the record shows calcium signal, replicate 1 = 104; calcium signal, replicate 2 = 80.3; inactive.
After knock-down of Sirt6, the screen gave calcium signal, replicate 1 = 117; calcium signal, replicate 2 = 108; inactive.
With knock-down of Ttc19, the record shows calcium signal, replicate 1 = 173; calcium signal, replicate 2 = 139; inactive.
Knock-down of Syt7 #1 came out at: calcium signal, replicate 1 = 127; calcium signal, replicate 2 = 151; inactive.
Syt7 #2 scored calcium signal, replicate 1 = 79.2; calcium signal, replicate 2 = 131; inactive.
Uba2 scored calcium signal, replicate 1 = 80.2; calcium signal, replicate 2 = 70.4; inactive.
CG10839 gave calcium signal, replicate 1 = 119; calcium signal, replicate 2 = 149; inactive.
Knock-down of tok resulted in: calcium signal, replicate 1 = 213; calcium signal, replicate 2 = 206; inactive.
Silencing of Fer3 came out at: calcium signal, replicate 1 = 123; calcium signal, replicate 2 = 172; inactive.
For CG12147, the values are calcium signal, replicate 1 = 136; calcium signal, replicate 2 = 139; inactive.
For CG34050 (retired record), the values are active.
With knock-down of TBC1d7 the results were calcium signal, replicate 1 = 188; calcium signal, replicate 2 = 131; inactive.
Against Rdh1, the entry reads calcium signal, replicate 1 = 140; calcium signal, replicate 2 = 107; inactive.
With knock-down of Lcp65Ab2 + Lcp65Ab1 #1, the record shows calcium signal, replicate 1 = 127; calcium signal, replicate 2 = 117; inactive.
After knock-down of Lcp65Ab2 + Lcp65Ab1 #2, the screen gave calcium signal, replicate 1 = 131; calcium signal, replicate 2 = 99.5; inactive.
For Aos1, the values are calcium signal, replicate 1 = 128; calcium signal, replicate 2 = 97.2; inactive.
For Rassf the deposit lists calcium signal, replicate 1 = 188; calcium signal, replicate 2 = 285; inactive.
